From article doi:10.1101/2022.10.27.514000
Results are given in words; binding and its absence hold for the method and conditions named. Binding calls can cover weak binding; strength is not graded here.

Target: T1, Arabidopsis thaliana Exo70B1 protein (AtExo70B1) (Arabidopsis thaliana) (UniProt Q9FGH9)
T1 sequence: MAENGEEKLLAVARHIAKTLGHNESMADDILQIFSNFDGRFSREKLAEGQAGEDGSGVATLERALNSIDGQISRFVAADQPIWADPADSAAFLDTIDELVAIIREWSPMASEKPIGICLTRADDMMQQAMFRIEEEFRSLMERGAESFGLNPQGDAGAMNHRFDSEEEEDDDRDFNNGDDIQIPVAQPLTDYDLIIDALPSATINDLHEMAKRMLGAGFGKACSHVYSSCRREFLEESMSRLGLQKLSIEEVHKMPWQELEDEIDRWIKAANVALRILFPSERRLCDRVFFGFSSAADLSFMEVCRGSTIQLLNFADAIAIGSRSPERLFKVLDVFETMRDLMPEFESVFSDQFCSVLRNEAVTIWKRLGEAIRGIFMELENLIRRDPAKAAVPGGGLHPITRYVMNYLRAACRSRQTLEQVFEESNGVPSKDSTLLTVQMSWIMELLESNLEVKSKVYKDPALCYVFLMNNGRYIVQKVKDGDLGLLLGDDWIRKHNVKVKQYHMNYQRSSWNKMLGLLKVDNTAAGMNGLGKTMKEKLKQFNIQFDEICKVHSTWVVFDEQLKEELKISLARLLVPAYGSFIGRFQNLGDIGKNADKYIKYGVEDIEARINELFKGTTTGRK
Experiment: circular dichroism

Xanthomonas campestris pv. campestris type three effector XopP (XccXopP)
binding: binds
